# Source: US12558356B2, “Immunophilin binding agents and uses thereof” (The Regents of the University of California, priority 2019, dated 2026)
# Chains of the proteins cited; added tags and fusions are not shown. Lines headed by an entry give the natural chain unless they say otherwise; changes in a name come on top.
# UniProt Q5S006: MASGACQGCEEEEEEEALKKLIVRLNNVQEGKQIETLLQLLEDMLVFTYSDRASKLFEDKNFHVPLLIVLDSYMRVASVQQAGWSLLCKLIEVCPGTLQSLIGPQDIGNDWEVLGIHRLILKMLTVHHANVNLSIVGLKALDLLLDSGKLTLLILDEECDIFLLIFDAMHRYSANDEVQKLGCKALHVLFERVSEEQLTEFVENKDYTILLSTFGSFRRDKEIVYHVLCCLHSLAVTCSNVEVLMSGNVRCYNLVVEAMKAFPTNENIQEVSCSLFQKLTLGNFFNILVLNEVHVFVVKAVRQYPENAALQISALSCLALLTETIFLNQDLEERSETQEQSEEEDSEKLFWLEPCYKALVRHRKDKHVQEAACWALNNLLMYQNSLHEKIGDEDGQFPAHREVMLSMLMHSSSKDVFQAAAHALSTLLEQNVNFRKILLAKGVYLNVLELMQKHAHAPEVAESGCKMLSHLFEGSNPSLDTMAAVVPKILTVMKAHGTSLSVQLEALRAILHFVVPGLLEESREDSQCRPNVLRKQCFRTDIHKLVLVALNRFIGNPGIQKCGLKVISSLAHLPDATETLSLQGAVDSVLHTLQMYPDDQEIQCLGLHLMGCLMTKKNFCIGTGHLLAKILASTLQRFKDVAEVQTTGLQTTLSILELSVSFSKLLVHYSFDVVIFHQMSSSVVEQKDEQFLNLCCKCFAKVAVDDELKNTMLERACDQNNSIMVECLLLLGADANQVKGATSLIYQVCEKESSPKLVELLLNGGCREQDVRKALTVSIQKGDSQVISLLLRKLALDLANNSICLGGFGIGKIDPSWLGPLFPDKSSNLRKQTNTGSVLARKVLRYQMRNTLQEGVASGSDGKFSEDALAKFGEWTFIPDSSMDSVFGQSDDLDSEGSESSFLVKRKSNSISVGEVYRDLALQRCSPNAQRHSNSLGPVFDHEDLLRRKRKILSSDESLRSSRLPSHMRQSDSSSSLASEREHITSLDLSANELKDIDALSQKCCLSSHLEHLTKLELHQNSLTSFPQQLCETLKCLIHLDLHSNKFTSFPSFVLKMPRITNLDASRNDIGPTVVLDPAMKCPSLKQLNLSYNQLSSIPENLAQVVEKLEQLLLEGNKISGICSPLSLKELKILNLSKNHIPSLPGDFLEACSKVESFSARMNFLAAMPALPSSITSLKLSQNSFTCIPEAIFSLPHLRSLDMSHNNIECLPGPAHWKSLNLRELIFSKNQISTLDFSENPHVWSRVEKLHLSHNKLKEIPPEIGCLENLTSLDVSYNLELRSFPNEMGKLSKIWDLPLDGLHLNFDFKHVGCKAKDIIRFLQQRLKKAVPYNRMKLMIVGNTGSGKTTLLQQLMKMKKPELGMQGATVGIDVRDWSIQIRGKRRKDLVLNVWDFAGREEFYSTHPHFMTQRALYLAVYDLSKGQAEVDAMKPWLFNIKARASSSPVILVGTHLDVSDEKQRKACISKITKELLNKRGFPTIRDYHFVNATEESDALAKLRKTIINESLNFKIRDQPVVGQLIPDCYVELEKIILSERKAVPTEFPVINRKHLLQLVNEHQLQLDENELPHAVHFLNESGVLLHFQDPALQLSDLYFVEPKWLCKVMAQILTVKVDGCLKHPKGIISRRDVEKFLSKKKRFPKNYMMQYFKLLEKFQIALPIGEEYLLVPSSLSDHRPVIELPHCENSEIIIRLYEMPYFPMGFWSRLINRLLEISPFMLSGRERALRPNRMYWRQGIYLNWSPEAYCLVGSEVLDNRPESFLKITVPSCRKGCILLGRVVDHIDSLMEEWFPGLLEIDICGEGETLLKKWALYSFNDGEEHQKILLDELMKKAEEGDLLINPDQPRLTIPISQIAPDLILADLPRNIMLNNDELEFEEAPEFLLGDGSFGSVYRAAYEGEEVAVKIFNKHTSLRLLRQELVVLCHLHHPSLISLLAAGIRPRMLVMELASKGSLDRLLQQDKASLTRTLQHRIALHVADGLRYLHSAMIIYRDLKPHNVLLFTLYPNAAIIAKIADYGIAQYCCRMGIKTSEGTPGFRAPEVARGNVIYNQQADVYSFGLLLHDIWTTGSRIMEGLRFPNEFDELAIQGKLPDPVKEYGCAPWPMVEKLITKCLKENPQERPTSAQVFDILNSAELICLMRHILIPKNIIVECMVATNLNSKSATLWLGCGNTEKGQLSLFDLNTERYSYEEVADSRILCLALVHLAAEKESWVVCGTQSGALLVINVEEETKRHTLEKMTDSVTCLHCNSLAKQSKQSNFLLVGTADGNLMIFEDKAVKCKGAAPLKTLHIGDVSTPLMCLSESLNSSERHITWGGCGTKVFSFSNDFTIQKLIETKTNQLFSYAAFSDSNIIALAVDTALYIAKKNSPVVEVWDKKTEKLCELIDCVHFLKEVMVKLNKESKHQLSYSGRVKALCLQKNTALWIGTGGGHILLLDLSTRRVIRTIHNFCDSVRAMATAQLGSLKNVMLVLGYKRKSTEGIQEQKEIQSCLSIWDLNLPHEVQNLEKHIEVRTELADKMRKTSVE
# UniProt P62942, whole entry: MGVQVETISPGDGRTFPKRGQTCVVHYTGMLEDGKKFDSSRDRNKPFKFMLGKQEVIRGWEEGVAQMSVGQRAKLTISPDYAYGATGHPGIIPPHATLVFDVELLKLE
# For at least one compound, name, drawing or mass did not settle the structure.
# Tests used:
# [1] = molecular target: LRRK2 (Mus musculus (Mouse), UniProt Q5S006); experiment: LRRK2 phosphorylation in cells; type: cell-based
# [2] = system: LRRK2; experiment: LRRK2 autophosphorylation; type: cell-based
# [3] = system: HER2; experiment: HER2 signaling in SK-BR-3 cells; type: cell-based
# [4] = system: SK-BR-3 cells; experiment: Growth inhibition of SK-BR-3 cells; type: cell-based
# [5] = molecular target: FKBP12 (Homo sapiens (Human), UniProt P62942); experiment: FKBP12 binding assay (fluorescence polarization)
compound,measurement,setting,value
CCNc1nc(Nc2cc(F)c(C(=O)N3CCN(C(=O)CCC[C@@H]4/C=C(\C)C[C@H](C)CC(OC)[C@H]5O[C@@](O)(C(=O)C(=O)N6CCCC[C@H]6C(=O)O[C@H](/C(C)=C/[C@@H]6CC[C@@H](O)[C@H](OC)C6)[C@H](C)[C@@H](O)CC4=O)[C@H](C)CC5OC)CC3)cc2OC)ncc1C(F)(F)F (stereo partly shown) [FK506-GNE7915],inhibition of LRRK2 phosphorylation,[1],potently inhibits LRRK2 phosphorylation
same,Inhibition of LRRK2 autophosphorylation compared to GNE7915,[2],more efficacious
COC1C[C@@H](C)C/C(C)=C/[C@@H](CCCC(=O)N2CCN(Cc3ccc(-c4ccc5ncnc(Nc6ccc(OCc7cccc(F)c7)c(Cl)c6)c5c4)o3)CC2)C(=O)C[C@H](O)[C@@H](C)[C@@H](/C(C)=C/[C@@H]2CC[C@@H](O)[C@H](OC)C2)OC(=O)[C@@H]2CCCCN2C(=O)C(=O)[C@]2(O)O[C@H]1C(OC)C[C@H]2C (stereo partly shown) [FK506-lapatinib],HER2 signaling,[3]; 1 μM,suppressed HER2 signaling
same,HER2 signaling suppression with blocker,[3]; + 10 μM RapaBlock,attenuated
same,IC50 of growth inhibition compared to lapatinib,[4],comparable to that of lapatinib
same,Growth inhibition with blocker,[4]; + 10 μM RapaBlock,attenuated
CCC(C)(C)C(=O)C(=O)N1CCCC[C@H]1C(=O)O[C@H](CCc1ccc(OC)c(OC)c1)c1cccc(NCC(=O)O)c1 [ZZY01-060A],Kd,[5],46.4 nM
